Results from the supplement of paper PMC4604168 (melanoma cell lines).
Some of the results follow. Repeats are few or missing, and single values can be far off.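 Imaging used 1,536-well plates; nuclei positive for cleaved PARP by antibody were divided by total DNA-stained nuclei to yield the apoptosis fraction. Doses for screening kept most cells viable, and cell lines differ markedly in resting and induced cleaved-PARP levels.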

What was measured:
Assay in all cases: cleaved PARP positive nuclei fraction relative to DMSO control; melanoma cells; higher = more apoptosis
Conditions in all cases: library dose: low library concentration; 72 h
WM115 = system: WM115
WM1716 = system: WM1716
WM1745 = system: WM1745
WM3526 = system: WM3526
WM3619 = system: WM3619
WM451Lu = system: WM451Lu

| Compound | cleaved PARP positive nuclei fraction (WM115) | cleaved PARP positive nuclei fraction (WM1716) | cleaved PARP positive nuclei fraction (WM1745) | cleaved PARP positive nuclei fraction (WM3526) | cleaved PARP positive nuclei fraction (WM3619) | cleaved PARP positive nuclei fraction (WM451Lu) |
| --- | --- | --- | --- | --- | --- | --- |
| NC(=O)c1ccc(N(C(N)=O)c2c(F)cccc2F)nc1-c1ccc(F)cc1F + CC(C)CCN1c2nc(Nc3cc(F)c(O)c(F)c3)ncc2N(C)C(=O)C1C [BID1870] (first compound 0.4 µM, partner dose 0.2 µM) | 162% | 44.4% | 84.3% | 49.4% | 142% | 72.2% |
| CCCCCCCCc1ccc(CCC(N)(CO)CO)cc1 [fingolimod] + CN(NC(=O)CC(=O)NN(C)C(=S)c1ccccc1)C(=S)c1ccccc1 [STA4783] (first compound 2 µM, partner dose 0.006 µM) | 334% | 88.5% | 137% | 77.3% | 115% | 158% |
| C[C@]1(O)C[C@@H](c2nc(-c3ccc4ccc(-c5ccccc5)nc4c3)c3c(N)nccn32)C1 + CS(=O)(=O)c1ccc(C(=O)Nc2ccc(Cl)c(-c3ccccn3)c2)c(Cl)c1 [vismodegib] (first compound 0.4 µM, partner dose 1 µM) | 154% | 64.9% | 237% | 94.7% | 102% | 150% |
| C[C@]1(O)C[C@@H](c2nc(-c3ccc4ccc(-c5ccccc5)nc4c3)c3c(N)nccn32)C1 + O=C(O)C(=O)Nc1sc2c(c1C(=O)O)CCNC2 [TCS401] (first compound 0.4 µM, partner dose 1.66667 µM) | 99.1% | 47.7% | 134% | 306% | 114% | 78.9% |
| COc1ccc(C2=N[C@@H](c3ccc(Cl)cc3)[C@@H](c3ccc(Cl)cc3)N2C(=O)N2CCNC(=O)C2)c(OC(C)C)c1 [Nutlin-3] + O=C(Nc1ccccc1)c1cc([N+](=O)[O-])ccc1Cl [GW9662] (first compound 0.1 µM, partner dose 2 µM) | 101% | 90.2% | 100% | 150% | 124% | 65.8% |
| Cn1sc(=O)n(Cc2ccccc2)c1=O + CC1(C)NC(=O)N(c2ccc([N+](=O)[O-])c(C(F)(F)F)c2)C1=O [nilutamide] (first compound 0.4 µM, partner dose 1 µM) | 53.5% | 102% | 84.7% | 56.9% | 103% | 311% |
| COc1ccc(C2=N[C@@H](c3ccc(Cl)cc3)[C@@H](c3ccc(Cl)cc3)N2C(=O)N2CCNC(=O)C2)c(OC(C)C)c1 [Nutlin-3] + CS(=O)(=O)CCNCc1ccc(-c2ccc3ncnc(Nc4ccc(OCc5cccc(F)c5)c(Cl)c4)c3c2)o1 [lapatinib] (first compound 0.1 µM, partner dose 0.8 µM) | 69.7% | 50.6% | 77.2% | 20% | 83.5% | 17.9% |
| CCN(CC)CCNC(=O)c1c(C)[nH]c(/C=C2\C(=O)Nc3ccc(F)cc32)c1C [sunitinib] + C#Cc1cccc(Nc2ncnc3cc(OCCOC)c(OCCOC)cc23)c1 [erlotinib] (first compound 0.4 µM, partner dose 0.8 µM) | 113% | 56.3% | 146% | 60.1% | 102% | 102% |
| Cn1sc(=O)n(Cc2ccccc2)c1=O + C[C@@H](Oc1cc(-c2cnn(C3CCNCC3)c2)cnc1N)c1c(Cl)ccc(F)c1Cl [Crizotinib] (first compound 0.4 µM, partner dose 0.2 µM) | 76.4% | 72.1% | 98.4% | 46.4% | 91.9% | 76.8% |
| CCCCCCCCc1ccc(CCC(N)(CO)CO)cc1 [fingolimod] + CC(C)CCN1c2nc(Nc3cc(F)c(O)c(F)c3)ncc2N(C)C(=O)C1C [BID1870] (first compound 2 µM, partner dose 0.2 µM) | 51.6% | 167% | 114% | 345% | 110% | 49.4% |
| Cn1cnc2c(F)c(Nc3ccc(Br)cc3Cl)c(C(=O)NOCCO)cc21 [selumetinib] + Nc1cccc2c1CN(C1CCC(=O)NC1=O)C2=O [lenalidomide] (first compound 0.015 µM, partner dose 1 µM) | 128% | 30.5% | 90.7% | 146% | 126% | 177% |
| CN(c1ncccc1CNc1nc(Nc2ccc3c(c2)CC(=O)N3)ncc1C(F)(F)F)S(C)(=O)=O + NCC(=O)Nc1ccc(-n2nc(C(F)(F)F)cc2-c2ccc3c(ccc4ccccc43)c2)cc1 [OSU03012] (first compound 0.08 µM, partner dose 1 µM) | 100% | 182% | 141% | 26.1% | 119% | 123% |
| NC(=O)c1ccc(N(C(N)=O)c2c(F)cccc2F)nc1-c1ccc(F)cc1F + CCN(CC)CCCCNc1ncc2cc(-c3cc(OC)cc(OC)c3)c(NC(=O)NC(C)(C)C)nc2n1 [PD173074] (first compound 0.4 µM, partner dose 0.1 µM) | 56.8% | 85.4% | 95.9% | 135% | 67.3% | 71.2% |
| C[C@@H](N)c1ccc(C(=O)Nc2ccnc3[nH]ccc23)cc1 + O=c1cc(-c2cccc3c2Sc2ccccc2S3)oc(N2CCOCC2)c1 [KU55933] (first compound 0.4 µM, partner dose 1 µM) | 207% | 425% | 98.2% | 64.5% | 97.1% | 69.5% |
| NC(=O)c1ccc(N(C(N)=O)c2c(F)cccc2F)nc1-c1ccc(F)cc1F + Clc1ccc(Nc2nnc(Cc3ccncc3)c3ccccc23)cc1 [vatalanib] (first compound 0.4 µM, partner dose 2 µM) | 68.2% | 31.5% | 85.3% | 22.1% | 115% | 80% |
| CCN(CC)CCNC(=O)c1c(C)[nH]c(/C=C2\C(=O)Nc3ccc(F)cc32)c1C [sunitinib] + Oc1cc(-c2nc(-c3ccccc3)[nH]c2-c2ccncc2)ccc1Cl [L779450] (first compound 0.4 µM, partner dose 0.2 µM) | 169% | 39.4% | 126% | 157% | 72.1% | 43.4% |
| C[C@@H](N)c1ccc(C(=O)Nc2ccnc3[nH]ccc23)cc1 + C[C@]1(c2nc3c(C(N)=O)cccc3[nH]2)CCCN1 [Veliparib] (first compound 0.4 µM, partner dose 1.4 µM) | 88.8% | 114% | 110% | 48.7% | 197% | 322% |
| COc1ccc(C2=N[C@@H](c3ccc(Cl)cc3)[C@@H](c3ccc(Cl)cc3)N2C(=O)N2CCNC(=O)C2)c(OC(C)C)c1 [Nutlin-3] + C#Cc1cccc(Nc2ncnc3cc(OCCOC)c(OCCOC)cc23)c1 [erlotinib] (first compound 0.1 µM, partner dose 0.8 µM) | 24.3% | 69.2% | 119% | 37.9% | 98.5% | 77.4% |
| C[C@@H](N)c1ccc(C(=O)Nc2ccnc3[nH]ccc23)cc1 + CN(NC(=O)CC(=O)NN(C)C(=S)c1ccccc1)C(=S)c1ccccc1 [STA4783] (first compound 0.4 µM, partner dose 0.006 µM) | 233% | 1040% | 296% | 50.6% | 185% | 250% |
| COc1ccc(C2=N[C@@H](c3ccc(Cl)cc3)[C@@H](c3ccc(Cl)cc3)N2C(=O)N2CCNC(=O)C2)c(OC(C)C)c1 [Nutlin-3] + CC(=O)O[C@@]12CO[C@@H]1C[C@H](O)[C@@]1(C)C(=O)[C@H](O)C3=C(C)[C@@H](OC(=O)[C@H](O)[C@@H](NC(=O)OC(C)(C)C)c4ccccc4)C[C@@](O)([C@@H](OC(=O)c4ccccc4)[C@H]21)C3(C)C [Docetaxel] (first compound 0.1 µM, partner dose 0.0001 µM) | 302% | 283% | 140% | 185% | 177% | 241% |
| C[C@]1(O)C[C@@H](c2nc(-c3ccc4ccc(-c5ccccc5)nc4c3)c3c(N)nccn32)C1 + COc1cc(Nc2ncc(F)c(Nc3ccc4c(n3)NC(=O)C(C)(C)O4)n2)cc(OC)c1OC [Tamatinib] (first compound 0.4 µM, partner dose 0.4 µM) | 86% | 123% | 185% | 96.2% | 88.9% | 121% |
| NC1(c2ccc(-c3nc4ccn5c(=O)[nH]nc5c4cc3-c3ccccc3)cc2)CCC1 + CNC(=O)c1cc(Oc2ccc(NC(=O)Nc3ccc(Cl)c(C(F)(F)F)c3)cc2)ccn1 [sorafenib] (first compound 0.4 µM, partner dose 0.4 µM) | 228% | 62.7% | 110% | 59% | 112% | 41.4% |
| CN(c1ncccc1CNc1nc(Nc2ccc3c(c2)CC(=O)N3)ncc1C(F)(F)F)S(C)(=O)=O + O=c1cc(-c2cccc3c2Sc2ccccc2S3)oc(N2CCOCC2)c1 [KU55933] (first compound 0.08 µM, partner dose 1 µM) | 105% | 106% | 222% | 79.8% | 102% | 200% |

Individual results from the results shown.
Under cleaved PARP positive nuclei fraction (WM115), NC(=O)c1ccc(N(C(N)=O)c2c(F)cccc2F)nc1-c1ccc(F)cc1F + CCN(CC)CCCCNc1ncc2cc(-c3cc(OC)cc(OC)c3)c(NC(=O)NC(C)(C)C)nc2n1 [PD173074] (first compound 0.4 µM, partner dose 0.1 µM) reads 56.8%
Under cleaved PARP positive nuclei fraction (WM1716), Cn1sc(=O)n(Cc2ccccc2)c1=O + CC1(C)NC(=O)N(c2ccc([N+](=O)[O-])c(C(F)(F)F)c2)C1=O [nilutamide] (first compound 0.4 µM, partner dose 1 µM) reads 102%
